Reference: PubChem BioAssay AID256 (DTP/NCI, 2004)
The list is a part of this screen's results and no random one: it gathers some chemical classes. Not every dose and run of a compound is shown. T/C: endpoint of the treated group in % of that of the vehicle group. Some entries give survivors of the animals treated and no T/C: the source holds a T/C of zero for them, seemingly a mark for toxic or unscored doses. Some survivor counts are full or nearly so, which does not show that the dose was tolerated: the source hardly ever lists a survival T/C far under the control, and the zero likely stands for such cases as well. Survivors were counted at the toxicity check, usually on the fifth day, unless a day is given; later deaths do not show. Schedule codes are those of the source, taken here to give the interval after Q, in days (D) or hours (H), and the number of doses after X. Where survival is the endpoint, this PubChem deposit counts one and a half times the control or more as active, and values a quarter to a half above the control carry no call in these data; other NCI protocols may use other cut-offs. Some entries show no survivor count and are marked so; the dose need not have been tolerated. Some T/C values are followed by the survivors on the day toxicity was checked, most often the fifth; where neither a count nor a note follows, no animal had died by that day.

System: CD2F1 mice, L1210 leukemia ip, survival T/C
Assay: NCI In Vivo Anticancer Drug Screen. Data for tumor model L1210 Leukemia (intraperitoneal) in CD2F1 (CDF1) mice
Details: higher T/C = longer survival
Summary of the method: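 Antitumor effect is scored in animals hosting a serially transplanted tumor. Values compare compound-dosed animals against vehicle-only controls as a simple quotient.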

[1] = T/C endpoint: mean survival time, dose: 100.0 mg/kg/injection, schedule: Q04DX003 (ip), vehicle: saline with Tween-80
[2] = T/C endpoint: mean survival time, dose: 200.0 mg/kg/injection, schedule: Q04DX003 (ip), vehicle: saline with Tween-80
[3] = T/C endpoint: mean survival time, dose: 400.0 mg/kg/injection, schedule: Q04DX003 (ip), vehicle: saline with Tween-80
[4] = T/C endpoint: mean survival time, dose: 100.0 mg/kg/injection, schedule: Q01DX001 (ip), vehicle: carboxymethylcellulose (CMC)
[5] = T/C endpoint: mean survival time, dose: 200.0 mg/kg/injection, schedule: Q01DX001 (ip), vehicle: carboxymethylcellulose (CMC)
[6] = T/C endpoint: mean survival time, dose: 400.0 mg/kg/injection, schedule: Q01DX001 (ip), vehicle: carboxymethylcellulose (CMC)

With O=C(O)c1[nH]nc(-c2ccc([N+](=O)[O-])cc2[N+](=O)[O-])c1[N+](=O)[O-] the T/C (T/C endpoint: mean survival time, dose: 4.7 mg/kg/injection, schedule: Q01DX005 (ip), vehicle: other) was 107 % of control, the T/C (T/C endpoint: mean survival time, dose: 9.4 mg/kg/injection, schedule: Q01DX005 (ip), vehicle: other) was 111 % of control and the T/C (T/C endpoint: mean survival time, dose: 18.8 mg/kg/injection, schedule: Q01DX005 (ip), vehicle: other) was 93 % of control. The T/C (T/C endpoint: mean survival time, dose: 37.5 mg/kg/injection, schedule: Q01DX005 (ip), vehicle: other) was 90 % of control, the T/C (T/C endpoint: mean survival time, dose: 50.0 mg/kg/injection, schedule: Q01DX005 (ip), vehicle: other) was 89 % of control and the T/C (T/C endpoint: mean survival time, dose: 75.0 mg/kg/injection, schedule: Q01DX005 (ip), vehicle: other) was 90 % of control. The T/C (T/C endpoint: mean survival time, dose: 100.0 mg/kg/injection, schedule: Q01DX005 (ip), vehicle: other) was 97 % of control, the T/C (T/C endpoint: mean survival time, dose: 200.0 mg/kg/injection, schedule: Q01DX005 (ip), vehicle: other) was 89 % of control [2 of 3 alive] and the T/C (T/C endpoint: mean survival time, dose: 400.0 mg/kg/injection, schedule: Q01DX005 (ip), vehicle: other) was 97 % of control.

For COC(=O)N(CCCl)P(=O)(Cl)OC (configuration not stated), the T/C (T/C endpoint: mean survival time, dose: 62.5 mg/kg/injection, schedule: Q01DX001 (ip), vehicle: water) was 95 % of control, the T/C (T/C endpoint: mean survival time, dose: 125.0 mg/kg/injection, schedule: Q01DX001 (ip), vehicle: water) was 97 % of control and the T/C (T/C endpoint: mean survival time, dose: 250.0 mg/kg/injection, schedule: Q01DX001 (ip), vehicle: water) was 95 % of control. For the same compound, the T/C (T/C endpoint: mean survival time, dose: 500.0 mg/kg/injection, schedule: Q01DX001 (ip), vehicle: water) was 100 % of control.

For Cc1c([N+](=O)[O-])c(C)c([N+](=O)[O-])c(C2CCCCC2)c1[N+](=O)[O-], the T/C [1] was 98 % of control, the T/C [2] was 102 % of control and the T/C [3] was 95 % of control.

CCOP(=O)(NC1CCCCC1)OCC was tested, and the T/C (T/C endpoint: mean survival time, dose: 50.0 mg/kg/injection, schedule: Q01DX001 (ip), vehicle: carboxymethylcellulose (CMC)) was 100 % of control, the T/C [4] was 100 % of control and the T/C [5] was 100 % of control. The T/C [6] was 100 % of control.

For CCN(CC)CCOC(=O)C(O)(c1ccccc1)c1cc(C)c(C)c(C)c1C (configuration not stated), the T/C (T/C endpoint: mean survival time, dose: 75.0 mg/kg/injection, schedule: Q01DX001 (ip), vehicle: other) was 100 % of control.

In the case of CCOP1(N)=NP(Cl)(Cl)=NP(Cl)(Cl)=N1 (configuration not stated), the T/C (T/C endpoint: mean survival time, dose: 100.0 mg/kg/injection, schedule: Q01DX001 (ip), vehicle: saline with Tween-80) is reported as 106 % of control, the T/C (T/C endpoint: mean survival time, dose: 200.0 mg/kg/injection, schedule: Q01DX001 (ip), vehicle: saline with Tween-80) is reported as 101 % of control and the survivor count (T/C endpoint: mean survival time, dose: 400.0 mg/kg/injection, schedule: Q01DX001 (ip), vehicle: saline with Tween-80) is reported as 0 of 6.

With O=c1[nH]cc(Nc2c([N+](=O)[O-])cc([N+](=O)[O-])cc2[N+](=O)[O-])c(=O)[nH]1 the T/C (T/C endpoint: mean survival time, dose: 6.25 mg/kg/injection, schedule: Q01DX009 (ip), vehicle: saline with Tween-80) was 107 % of control, the T/C (T/C endpoint: mean survival time, dose: 6.25 mg/kg/injection, schedule: Q04DX003 (ip), vehicle: saline with Tween-80) was 100 % of control and the T/C (T/C endpoint: mean survival time, dose: 12.5 mg/kg/injection, schedule: Q01DX009 (ip), vehicle: saline with Tween-80) was 93 % of control. For the same compound, the T/C (T/C endpoint: mean survival time, dose: 12.5 mg/kg/injection, schedule: Q04DX003 (ip), vehicle: saline with Tween-80) was 96 % of control, the T/C (T/C endpoint: mean survival time, dose: 25.0 mg/kg/injection, schedule: Q01DX009 (ip), vehicle: saline with Tween-80) was 95 % of control and the T/C (T/C endpoint: mean survival time, dose: 25.0 mg/kg/injection, schedule: Q04DX003 (ip), vehicle: saline with Tween-80) was 100 % of control. For the same compound, the survivor count [1] was 0 of 6, the survivor count [2] was 0 of 6 and the survivor count [3] was 0 of 6.

With CCCCCSCSP(C)(=O)OC(C)C (configuration not stated) the T/C (T/C endpoint: mean survival time, dose: 0.31 mg/kg/injection, schedule: Q04DX003 (ip), vehicle: saline with Tween-80) was 103 % of control [survivor count not shown] and the T/C (T/C endpoint: mean survival time, dose: 0.63 mg/kg/injection, schedule: Q04DX003 (ip), vehicle: saline with Tween-80) was 97 % of control [survivor count not shown].

In the case of CCP1(=O)Nc2ccc(C)cc2N1 (configuration not stated), the T/C (T/C endpoint: mean survival time, dose: 100.0 mg/kg/injection, schedule: Q01DX001 (ip), vehicle: saline) is reported as 100 % of control [survivor count not shown], the T/C (T/C endpoint: mean survival time, dose: 200.0 mg/kg/injection, schedule: Q01DX001 (ip), vehicle: saline) is reported as 100 % of control [survivor count not shown] and the T/C (T/C endpoint: mean survival time, dose: 400.0 mg/kg/injection, schedule: Q01DX001 (ip), vehicle: saline) is reported as 91 % of control [survivor count not shown].

CS(=O)(=O)OC1CSCCc2ccccc21 (configuration not stated) was tested, and the survivor count [4] was 1 of 4, the survivor count [5] was 2 of 4 and the survivor count [6] was 1 of 4.

In the case of C1CN1.[Cl][Pt][Cl], the T/C (T/C endpoint: median survival time, dose: 3.12 mg/kg/injection, schedule: Q04DX003 (ip), vehicle: distilled water + Tween-80) is reported as 115 % of control, the T/C (T/C endpoint: median survival time, dose: 6.25 mg/kg/injection, schedule: Q04DX003 (ip), vehicle: distilled water + Tween-80) is reported as 112 % of control and the T/C (T/C endpoint: median survival time, dose: 12.5 mg/kg/injection, schedule: Q04DX003 (ip), vehicle: distilled water + Tween-80) is reported as 97 % of control. For the same compound, the T/C (T/C endpoint: median survival time, dose: 25.0 mg/kg/injection, schedule: Q04DX003 (ip), vehicle: distilled water + Tween-80) was 105 % of control, the T/C (T/C endpoint: median survival time, dose: 50.0 mg/kg/injection, schedule: Q04DX003 (ip), vehicle: distilled water + Tween-80) was 112 % of control and the T/C (T/C endpoint: median survival time, dose: 100.0 mg/kg/injection, schedule: Q04DX003 (ip), vehicle: distilled water + Tween-80) was 112 % of control. For the same compound, the T/C (T/C endpoint: median survival time, dose: 200.0 mg/kg/injection, schedule: Q04DX003 (ip), vehicle: distilled water + Tween-80) was 116 % of control.

In the case of OCC(Cl)C(SCc1ccccc1)c1ccccc1 (configuration not stated), the T/C (T/C endpoint: mean survival time, dose: 100.0 mg/kg/injection, schedule: Q01DX009 (ip), vehicle: saline with Tween-80) is reported as 91 % of control, the T/C [1] is reported as 92 % of control and the T/C (T/C endpoint: mean survival time, dose: 200.0 mg/kg/injection, schedule: Q01DX009 (ip), vehicle: saline with Tween-80) is reported as 91 % of control. The T/C [2] was 97 % of control and the T/C [3] was 101 % of control.

In the case of CC1(C)COP(=O)(N(CCCl)CCCl)OC1, the T/C (T/C endpoint: mean survival time, dose: 62.5 mg/kg/injection, schedule: Q01DX001 (ip), vehicle: other) is reported as 97 % of control, the T/C (T/C endpoint: mean survival time, dose: 125.0 mg/kg/injection, schedule: Q01DX001 (ip), vehicle: other) is reported as 87 % of control and the T/C (T/C endpoint: mean survival time, dose: 250.0 mg/kg/injection, schedule: Q01DX001 (ip), vehicle: other) is reported as 103 % of control. For the same compound, the survivor count (T/C endpoint: mean survival time, dose: 500.0 mg/kg/injection, schedule: Q01DX001 (ip), vehicle: other) was 2 of 6.

CCNP(=O)(OCCC(C)O)N(CCCl)CCCl (configuration not stated) was tested, and the T/C (T/C endpoint: mean survival time, dose: 62.5 mg/kg/injection, schedule: Q01DX001 (ip), vehicle: DMSO) was 98 % of control, the T/C (T/C endpoint: mean survival time, dose: 125.0 mg/kg/injection, schedule: Q01DX001 (ip), vehicle: DMSO) was 105 % of control and the T/C (T/C endpoint: mean survival time, dose: 178.0 mg/kg/injection, schedule: Q01DX001 (ip), vehicle: DMSO) was 124 % of control. The T/C (T/C endpoint: mean survival time, dose: 250.0 mg/kg/injection, schedule: Q01DX001 (ip), vehicle: DMSO) was 130 % of control, the T/C (T/C endpoint: mean survival time, dose: 266.0 mg/kg/injection, schedule: Q01DX001 (ip), vehicle: DMSO) was 133 % of control and the T/C (T/C endpoint: mean survival time, dose: 400.0 mg/kg/injection, schedule: Q01DX001 (ip), vehicle: DMSO) was 179 % of control. The T/C (T/C endpoint: mean survival time, dose: 500.0 mg/kg/injection, schedule: Q01DX001 (ip), vehicle: DMSO) was 164 % of control, the survivor count (T/C endpoint: mean survival time, dose: 600.0 mg/kg/injection, schedule: Q01DX001 (ip), vehicle: DMSO) was 6 of 6 and the survivor count (T/C endpoint: mean survival time, dose: 900.0 mg/kg/injection, schedule: Q01DX001 (ip), vehicle: DMSO) was 0 of 6.

For O[As](O)O.S=C(S)c1ccccc1S, the T/C (T/C endpoint: mean survival time, dose: 25.0 mg/kg/injection, schedule: Q01DX009 (ip), vehicle: saline) was 103 % of control, the T/C (T/C endpoint: mean survival time, dose: 25.0 mg/kg/injection, schedule: Q04DX003 (ip), vehicle: saline) was 102 % of control and the T/C (T/C endpoint: mean survival time, dose: 50.0 mg/kg/injection, schedule: Q01DX009 (ip), vehicle: saline) was 107 % of control [5 of 6 alive]. For the same compound, the T/C (T/C endpoint: mean survival time, dose: 50.0 mg/kg/injection, schedule: Q04DX003 (ip), vehicle: saline) was 102 % of control, the survivor count (T/C endpoint: mean survival time, dose: 100.0 mg/kg/injection, schedule: Q01DX009 (ip), vehicle: saline) was 0 of 6 and the T/C (T/C endpoint: mean survival time, dose: 100.0 mg/kg/injection, schedule: Q04DX003 (ip), vehicle: saline) was 104 % of control [4 of 6 alive].
